From patent publication US20250283871A1, “COMPOSITIONS AND METHODS FOR MODULATING THE INTERACTION BETWEEN SS18-SSX FUSION ONCOPROTEIN AND NUCLEOSOMES” (Dana-Farber Cancer Institute, Inc., priority 2020, published 2025)

B1: PIP (protein, UniProt P12273 29-146, looked up)
Prolactin-inducible protein: QDNTRKIIIKNFDIPKSVRPNDEVTAVLAVQTELKECMVVKTYLISSIPLQGAFNYKYTACLCDDNPKTFYWDFYTNRTVQIAAVVDVIRELGICPDDAAVIPIKNNRFYTIEILKVE
B2: HSD17B12 (protein, UniProt Q53GQ0 1-312, looked up)
Very-long-chain 3-oxoacyl-CoA …: MESALPAAGFLYWVGAGTVAYLALRISYSLFTALRVWGVGNEAGVGPGLGEWAVVTGSTDGIGKSYAEELAKHGMKVVLISRSKDKLDQVSSEIKEKFKVETRTIAVDFASEDIYDKIKTGLAGLEIGILVNNVGMSYEYPEYFLDVPDLDNVIKKMININILSVCKMTQLVLPGMVERSKGAILNISSGSGMLPVPLLTIYSATKTFVDFFSQCLHEEYRSKGVFVQSVLPYFVATKLAKIRKPTLDKPSPETFVKSAIKTVGLQSRTNGYLIHALMGSIISNLPSWIYLKIVMNMNKSTRAHYLKKTKKN
B3: PSD4 (protein, UniProt Q8NDX1 1-1056, looked up)
PH and SEC7 domain-containing …: MMGDYRLPDHPQPMEILNLYLGDSLEPHPGECPRETCSHEDPPEPFEEQTWATDPPEPTRQNVPPWGSGVELTHLGSWVHQDGLEPCQEQTRATDPPESTRQDAPPWGSGVELTHLGSPSAQREHRQNTASPGSPVNSHLPGSPKQNRSTSTQVVFWAGILQAQMCVLDLEEELEKTEGLKAGLKCCLPTPPVDLPGDTGLHSSPPENEDSGEDSSEPEGEGQAWLREGTPDSSPQWGAEEESMFFSNPLFLASPCSENSASGECFSWGASDSHAGVRTGPESPATLEPPLPEDTVLWELESEPDLGDGAAISGHCTPPFPVPIYKPHSICWASVAAAEGAPAAPPGHGESEGDRLGPAPSAAPCVDEALTWESGCVGSDLGPAAHPVQPWASLSPEGWQRGGPFWPQVTLNSQDRDEREGGHPQESLPCTLAPCPWRSPASSPEPSSPESESRGPGPRPSPASSQEGSPQLQHHSSGILPKWTLDASQSSLLETDGEQPSSLKKKEAGEAPKPGEEVKSEGTARPAETGDVQPDIHLTSAEHENLRTPMNSSWLPGSPMPQAQSPEEGQRPPAGDKLANGVRNNKVAWNLASRLYRLEGFRKSEVAAYLQKNNDFSRAVAEEYLSFFQFGGQSLDRALRSFLQALVLSGETQERERILYQFSRRFHHCNPGIFPSVDSVHTLTCAIMLLNTDLHGQNIGKSMSCQEFITNLNGLRDGGNFPKELLKALYWSIRSEKLEWAVDEEDTARPEKAQPSLPAGKMSKPFLQLAQDPTVPTYKQGILARKMHQDADGKKTPWGKRGWKMFHTLLRGMVLYFLKQGEDHCLEGESLVGQMVDEPVGVHHSLATPATHYTKKPHVFQLRTADWRLYLFQAPTAKEMSSWIARINLAAATHSAPPFPAAVGSQRRFVRPILPVGPAQSSLEEQHRSHENCLDAAADDLLDLQRNLPERRGRGRELEEHRLRKEYLEYEKTRYETYVQLLVARLHCPSDALDLWEEQLGREAGGTREPKLSLKKSHSSPSLHQDEAPTTAKVKRNISERRTYRKIIPKRNRNQL
B4: C1orf131 (protein, UniProt Q8NDD1 1-293, looked up)
40S small subunit processome …: MRVDSSADPTMSQEQGPGSSTPPSSPTLLDALLQNLYDFGGTEGETEQKKIIKKRENKKRDVMASAALAAEPSPLPGSLIRGQRKSASSFFKELREERHCAPSGTPTGPEILAAAVPPSSLKNNREQVEVVEFHSNKKRKLTPDHNKNTKQANPSVLERDVDTQEFNLEKARLEVHRFGITGYGKGKERILEQERAIMLGAKPPKKSYVNYKVLQEQIKEKKAAKEEEKRLAQETDIFKKKKRKGQEDRKSKKKSAPSILSNGRIGQVGKFKNGTLILSPVDIKKINSSRVAK
B5: NUPL2 (protein, UniProt O15504 1-423, looked up)
Nucleoporin NUP42: MAICQFFLQGRCRFGDRCWNEHPGARGAGGGRQQPQQQPSGNNRRGWNTTSQRYSNVIQPSSFSKSTPWGGSRDQEKPYFSSFDSGASTNRKEGFGLSENPFASLSPDEQKDEKKLLEGIVKDMEVWESSGQWMFSVYSPVKKKPNISGFTDISPEELRLEYHNFLTSNNLQSYLNSVQRLINQWRNRVNELKSLNISTKVALLSDVKDGVNQAAPAFGFGSSQAATFMSPGFPVNNSSSDNAQNFSFKTNSGFAAASSGSPAGFGSSPAFGAAASTSSGISTSAPAFGFGKPEVTSAASFSFKSPAASSFGSPGFSGLPASLATGPVRAPVAPAFGGGSSVAGFGSPGSHSHTAFSKPSSDTFGNSSISTSLSASSSIIATDNVLFTPRDKLTVEELEQFQSKKFTLGKIPLKPPPLELLNV
B6: ZFX (protein, UniProt P17010 1-805, looked up)
Zinc finger X-chromosomal …: MDEDGLELQQEPNSFFDATGADGTHMDGDQIVVEVQETVFVSDVVDSDITVHNFVPDDPDSVVIQDVIEDVVIEDVQCPDIMEEADVSETVIIPEQVLDSDVTEEVSLAHCTVPDDVLASDITSASMSMPEHVLTGDSIHVSDVGHVGHVGHVEHVVHDSVVEAEIVTDPLTTDVVSEEVLVADCASEAVIDANGIPVDQQDDDKGNCEDYLMISLDDAGKIEHDGSSGMTMDTESEIDPCKVDGTCPEVIKVYIFKADPGEDDLGGTVDIVESEPENDHGVELLDQNSSIRVPREKMVYMTVNDSQPEDEDLNVAEIADEVYMEVIVGEEDAAAAAAAAAVHEQQMDDNEIKTFMPIAWAAAYGNNSDGIENRNGTASALLHIDESAGLGRLAKQKPKKRRRPDSRQYQTAIIIGPDGHPLTVYPCMICGKKFKSRGFLKRHMKNHPEHLAKKKYRCTDCDYTTNKKISLHNHLESHKLTSKAEKAIECDECGKHFSHAGALFTHKMVHKEKGANKMHKCKFCEYETAEQGLLNRHLLAVHSKNFPHICVECGKGFRHPSELKKHMRIHTGEKPYQCQYCEYRSADSSNLKTHVKTKHSKEMPFKCDICLLTFSDTKEVQQHALIHQESKTHQCLHCDHKSSNSSDLKRHIISVHTKDYPHKCDMCDKGFHRPSELKKHVAAHKGKKMHQCRHCDFKIADPFVLSRHILSVHTKDLPFRCKRCRKGFRQQSELKKHMKTHSGRKVYQCEYCEYSTTDASGFKRHVISIHTKDYPHRCEYCKKGFRRPSEKNQHIMRHHKEVGLP
B7: ETFA (protein, UniProt P13804 20-333, looked up)
Electron transfer …: QSTLVIAEHANDSLAPITLNTITAATRLGGEVSCLVAGTKCDKVAQDLCKVAGIAKVLVAQHDVYKGLLPEELTPLILATQKQFNYTHICAGASAFGKNLLPRVAAKLEVAPISDIIAIKSPDTFVRTIYAGNALCTVKCDEKVKVFSVRGTSFDAAATSGGSASSEKASSTSPVEISEWLDQKLTKSDRPELTGAKVVVSGGRGLKSGENFKLLYDLADQLHAAVGASRAAVDAGFVPNDMQVGQTGKIVAPELYIAVGISGAIQHLAGMKDSKTIVAINKDPEAPIFQVADYGIVADLFKVVPEMTEILKKK
B8: INA (protein, UniProt Q16352 1-499, looked up)
Alpha-internexin: MSFGSEHYLCSSSSYRKVFGDGSRLSARLSGAGGAGGFRSQSLSRSNVASSAACSSASSLGLGLAYRRPPASDGLDLSQAAARTNEYKIIRTNEKEQLQGLNDRFAVFIEKVHQLETQNRALEAELAALRQRHAEPSRVGELFQRELRDLRAQLEEASSARSQALLERDGLAEEVQRLRARCEEESRGREGAERALKAQQRDVDGATLARLDLEKKVESLLDELAFVRQVHDEEVAELLATLQASSQAAAEVDVTVAKPDLTSALREIRAQYESLAAKNLQSAEEWYKSKFANLNEQAARSTEAIRASREEIHEYRRQLQARTIEIEGLRGANESLERQILELEERHSAEVAGYQDSIGQLENDLRNTKSEMARHLREYQDLLNVKMALDIEIAAYRKLLEGEETRFSTSGLSISGLNPLPNPSYLLPPRILSATTSKVSSTGLSLKKEEEEEEASKVASKKTSQIGESFEEILEETVISTKKTEKSNIEETTISSQKI
B9: TMEM201 (protein, UniProt Q5SNT2 1-666, looked up)
Transmembrane protein 201: MEGVSALLARCPTAGLAGGLGVTACAAAGVLLYRIARRMKPTHTMVNCWFCNQDTLVPYGNRNCWDCPHCEQYNGFQENGDYNKPIPAQYLEHLNHVVSSAPSLRDPSQPQQWVSSQVLLCKRCNHHQTTKIKQLAAFAPREEGRYDEEVEVYRHHLEQMYKLCRPCQAAVEYYIKHQNRQLRALLLSHQFKRREADQTHAQNFSSAVKSPVQVILLRALAFLACAFLLTTALYGASGHFAPGTTVPLALPPGGNGSATPDNGTTPGAEGWRQLLGLLPEHMAEKLCEAWAFGQSHQTGVVALGLLTCLLAMLLAGRIRLRRIDAFCTCLWALLLGLHLAEQHLQAASPSWLDTLKFSTTSLCCLVGFTAAVATRKATGPRRFRPRRFFPGDSAGLFPTSPSLAIPHPSVGGSPASLFIPSPPSFLPLANQQLFRSPRRTSPSSLPGRLSRALSLGTIPSLTRADSGYLFSGSRPPSQVSRSGEFPVSDYFSLLSGSCPSSPLPSPAPSVAGSVASSSGSLRHRRPLISPARLNLKGQKLLLFPSPPGEAPTTPSSSDEHSPHNGSLFTMEPPHVPRKPPLQDVKHALDLRSKLERGSACSNRSIKKEDDSSQSSTCVVDTTTRGCSEEAATWRGRFGPSLVRGLLAVSLAANALFTSVFLYQSLR
B10: PRMT8 (protein, UniProt Q9NR22 2-394, looked up)
Protein arginine …: GMKHSSRCLLLRRKMAENAAESTEVNSPPSQPPQPVVPAKPVQCVHHVSTQPSCPGRGKMSKLLNPEEMTSRDYYFDSYAHFGIHEEMLKDEVRTLTYRNSMYHNKHVFKDKVVLDVGSGTGILSMFAAKAGAKKVFGIECSSISDYSEKIIKANHLDNIITIFKGKVEEVELPVEKVDIIISEWMGYCLFYESMLNTVIFARDKWLKPGGLMFPDRAALYVVAIEDRQYKDFKIHWWENVYGFDMTCIRDVAMKEPLVDIVDPKQVVTNACLIKEVDIYTVKTEELSFTSAFCLQIQRNDYVHALVTYFNIEFTKCHKKMGFSTAPDAPYTHWKQTVFYLEDYLTVRRGEEIYGTISMKPNAKNVRDLDFTVDLDFKGQLCETSVSNDYKMR

System: BAF complex subunits and histone proteins
Test: Mass spectrometry proteomics of purified HA-SS18 WT and HA-SS18-SSX1 complexes (Tables 5A-5E)
Set-up: species or system human
Conditions: HEK-293T
[1] = HA-SS18SSX1_CHR_peptides: proteins found in HA-SS18-SSX1 BAF complex purification from solubilized chromatin (CHR)
[2] = HA-SS18SSX1 purification, NE (soluble nuclear extract) fraction, peptides per identified protein
[3] = HA-SS18WT_NE_peptides: HA-SS18 WT complexes purified from nuclear extract (NE), label = protein identified (Gene Symbol)
[4] = HA-SS18WT_CHR_peptides: protein identified in HA-SS18 WT BAF complex purification from nuclease-treated solubilized chromatin (CHR)

Molecule | Total (peptides) [1] | Unique (peptides) [1] | Total (total peptides) [2] | Unique (unique peptides) [2] | Total (peptides) [3] | Unique (peptides) [3] | Total (total peptides) [4] | Unique (unique peptides) [4]
B1 | 1 | 1 | – | – | – | – | – | –
B2 | 1 | 1 | 11 | 9 | 10 | 9 | – | –
B3 | 1 | 1 | – | – | – | – | – | –
B4 | 1 | 1 | – | – | – | – | – | –
B5 | 1 | 1 | – | – | – | – | – | –
B6 | 1 | 1 | – | – | – | – | 1 | 1
B7 | 1 | 1 | 4 | 3 | 4 | 4 | – | –
B8 | 1 | 1 | – | – | – | – | 1 | 1
B9 | 1 | 1 | – | – | – | – | – | –
B10 | 1 | 1 | – | – | – | – | – | –
